Patent publication US20040102382A1, “Targeting peptides” (priority 2002, published 2004)

What follows are substances tested on heart (assay: In vivo phage display selection targeting heart). Settings: after three rounds of selection.
Parameters: species or system Balb/c mice
For HFTFPQQQPPRP, the “Frequency (number of times the sequence was found/number of sequences done)” value was 3/50.
HLPTSSLFDTTH was tested, and the “Frequency (number of times the sequence was found/number of sequences done)” value was 4/50.
In the case of HVNKLHG, the “Frequency (number of times the sequence was found/number of sequences done)” value is reported as 3/50.
For HWAPSMYDYVSW, the “Frequency (number of times the sequence was found/number of sequences done)” value was 12/50.
For LSPQRASQRLYS, the “Frequency (number of times the sequence was found/number of sequences done)” value was 3/50.
With QTSSPTPLSHTQ the “Frequency (number of times the sequence was found/number of sequences done)” value was 5/50.
For SGRIPYL, the “Frequency (number of times the sequence was found/number of sequences done)” value was 3/50.
In the case of THPRFAR [X1THPRFATX2], the “Frequency (number of times the sequence was found/number of sequences done)” value is reported as 10/50.
For WKSELPVQRARF, the “Frequency (number of times the sequence was found/number of sequences done)” value was 3/50.
For YPSAPPQWLTNT, the “Frequency (number of times the sequence was found/number of sequences done)” value was 4/50.
